Library screening results

Measurements from “University of Dundee, Small-Polar-MMV Screening Library” (2021), ChEMBL document CHEMBL3988442.

Results are given as percent effect.
The controls that fix the scale are not given in the record; negative values are as filed.
This is an unselected part of the compounds tested.

A: 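Whole-cell assay for inhibitors of Mycobacterium tuberculosis growth, labelled Cornell in the record; the read-out is not stated. The concentration is filed as 10 mM, unlikely as a test dose, so the dose is not known. Higher means stronger inhibition (inferred from two other growth screens of the library). Size under these conditions: about 53,000 compounds, about 900 of them at 50% or above in at least one test.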
B: 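Assay on Mycobacterium tuberculosis, filed only as a heat shock assay from Cornell; the read-out is not stated. The concentration is filed as 10 mM, unlikely as a test dose, so the dose is not known. Direction is inferred from retests: higher values go with stronger inhibition. About 69,000 compounds were tested under these conditions; 1.4% (about 930) showed 50% or more at least once.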

* CCS(=O)(=O)CC(=O)Nc1ccc2oc(C3CC3)nc2c1 : A: 14.89%; B: 10.09%
* Cc1nc(CCCNC(=O)C2CC(=O)N(C(C)(C)C)C2)sc1C (centres undefined) : A: -7.101%; B: -23.91%
* O=C(O)C(F)(F)F.[H][C@@]12C[C@H](C(=O)N(C)C)CN(Cc3ccc4c(c3)OCO4)[C@]1([H])CCO2 : A: 15.7%; B: 1.018%
* Cc1sc(Oc2ccccc2Cl)nc1C(=O)O : A: 48.03%; B: -5.43%
* CC(Nc1ccc(CN2CCCC2=O)cc1)c1ccc(C#N)cc1 (centres undefined) : B: -18.81%
* CSc1ccc(C(=O)N2CCOCC2c2c(C)nn(C)c2C)o1 (centres undefined) : B: 2.666%
* CC(=O)N1CCN(C(=O)NCCCN(C)S(C)(=O)=O)CC1 : B: 5.92%
* CC(C(=O)NCCc1cccs1)N1CCC(n2ccnc2)CC1 (centres undefined) : A: 4.627%; B: -1.729%
* Cc1cc(C(=O)N2CCC3(CC2)COCCN(c2cccnc2)C3)[nH]n1.O=C(O)C(F)(F)F : A: 35.74%; B: 7.784%
* CCc1nc(CC(=O)N2CCC(C(=O)N(CC)CC)CC2)cs1 : B: 1.798%
* O=C(O)C(F)(F)F.[H][C@]12CC[C@@]3(N=C(C)N(CC4CC4)C3=O)[C@@]1([H])CN(CC(=O)N(C)C)C2 : A: 23.12%; B: -9.645%
* [H][C@@]12COC[C@]1(C(=O)NCc1ccco1)CN(Cc1nc(C)cs1)C2 : A: 99.79%; B: -11.1%
* Cc1ccc(CN2CCc3[nH]nc(C(=O)N(C)C)c3C2)s1.O=C(O)C(F)(F)F.O=C(O)C(F)(F)F : B: 1.703%
* CN(C)c1cccc(C(=O)N2CCn3c(nnc3C3CC3)C2)c1 : A: 10.07%; B: -15.5%
* O=C(O)C(F)(F)F.O=C(O)C(F)(F)F.[H][C@]12CCN(Cc3ccccn3)[C@@]1([H])CC[C@H](COCC1CCOCC1)O2 : B: 4.928%
* COCCOCCNc1cncc(Br)c1 : A: 20.02%; B: 3.465%
* CNc1ccnc(NCCC(=O)Nc2ccccc2C)n1 : A: 0.7515%; B: 19.74%
* [H][C@@]12OCCN(S(=O)(=O)c3cn(C)cn3)[C@@]1([H])CC[C@H]2OC : A: 24.12%; B: 13.72%
* CN(CC1CN(CCn2cc(C#N)cn2)CCO1)c1cccnn1 (centres undefined) : A: 22.13%; B: -43.06%
* CN(Cc1nc(N)nc(N(C)C)n1)Cc1cccc2ccccc12 : A: -1.324%; B: -5.133%
* Cc1ncc2c(n1)C1(CCN(C(=O)C(C)C)CC1)OCC2.Cl : A: 54.97%; B: -8.854%
* CC(=O)N(Cc1noc(C)n1)C1CCN(Cc2cccc(C#N)c2)C1 (centres undefined) : B: -31.45%
* CN(Cc1ccc2c(c1)OCCO2)C(=O)Cn1cccnc1=O : B: 6.301%
* O=C1CC(c2ccncc2)c2c(c(C(=O)O)cn2-c2ccc(F)cc2)N1 (centres undefined) : B: 13.66%
* CC(CO)CN(Cc1ccccc1)Cc1c[nH]cn1 (centres undefined) : A: 5.622%; B: -9.881%
* C=C(C)CN(c1cn[nH]c1)S(=O)(=O)c1cccc(C#N)c1 : A: -8.464%; B: 5.171%
* CC(C)CC(CO)NS(=O)(=O)Cc1ccon1 (centres undefined) : A: 15.86%; B: 10.65%
* O=C(CSC1CCc2ccccc2NC1=O)NCCO (centres undefined) : A: -4.53%; B: -2.778%
* Cc1n[nH]c(C2CN(CCCOc3cccc(Cl)c3)CCO2)n1 (centres undefined) : A: -24.81%; B: -22.07%
* COc1cc2c(cc1OC)CN(C(C(=O)O)c1c(C)nn(C)c1C)CC2 (centres undefined) : B: -13.93%
* Cn1ccc(C(=O)N2CCC3(CCC(=O)N(C4CCCC4)C3)CC2)n1 : B: 10.36%
* COc1cccc2c1OCC(C(=O)N1CCN(C3CCCC3)C(=O)C1)C2 (centres undefined) : A: 18.75%; B: -4.466%
* Cn1ccc(C(=O)N2CCOC3(COCCN(CC4CC4)C3)C2)n1.O=C(O)C(F)(F)F (centres undefined) : A: 9.842%; B: 32.82%
* Cl.NC1CCc2nc(-c3ccncc3)nc(Nc3cccc(F)c3)c2C1 (centres undefined) : A: 61.47%; B: 82.22%

Repeated from the top, 3 entries:

| Compound | A | B |
|---|---|---|
| `CCS(=O)(=O)CC(=O)Nc1ccc2oc(C3CC3)nc2c1` | 14.89 | 10.09 |
| `Cc1nc(CCCNC(=O)C2CC(=O)N(C(C)(C)C)C2)sc1C` (centres undefined) | -7.101 | -23.91 |
| `O=C(O)C(F)(F)F.[H][C@@]12C[C@H](C(=O)N(C)C)CN(Cc3ccc4c(c3)OCO4)[C@]1([H])CCO2` | 15.7 | 1.018 |